Most values lie at the level of the controls, where differences are scatter. *1 amine or outer side, *2 acyl side, *3 side chain or, on linkers, in order; H or OH if unused. Where a SMILES comes first, the peptide text is derived from it. Bridges are numbered along the chain shown (N, C = ends). Roman numbers before positions name the chains, in order. [ ]: non-standard residue; d: D form. Actinocin(9to1) = Cc1c2oc3c(C)ccc(C(=O)[*:1])c3nc-2c(C(=O)[*:2])c(N)c1=O; NMeV = CN[C@H](C(=O)O)C(C)C; Sar = CNCC(=O)O
How the values were obtained:
Experiment in all cases: normalised response (% of control), CellTox Green; higher = less cell death (100 = DMSO, 0 = benzethonium chloride kill control)
Details in all cases: incubation time: 72 h
MDA-MB-468 = system: MDA-MB-468
Experimental: (§1)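 DSRT, 72 h incubation, CellTox Green / CellTiter-Glo readout. Signal is normalised to DMSO and benzethonium chloride controls. Value is the normalised response at dose 2.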

HCC1599 = system: HCC1599
Experimental: as §1

HCC1143 = system: HCC1143
Experimental: as §1

CAL-85-1 = system: CAL-85-1
Experimental: as §1

MCF-10A = system: MCF-10A
Experimental: as §1

CAL-120 = system: CAL-120
Experimental: as §1

CAL-51 = system: CAL-51
Experimental: as §1

MDA-MB-453 = system: MDA-MB-453
Experimental: as §1

MFM-223 = system: MFM-223
Experimental: as §1

CAL-148 = system: CAL-148
Experimental: as §1

MDA-MB-231 = system: MDA-MB-231
Experimental: as §1

HCC1937 = system: HCC1937
Experimental: as §1

MDA-MB-436 = system: MDA-MB-436
Experimental: as §1

BT-474 = system: BT-474
Experimental: as §1

Hs578T = system: Hs578T
Experimental: as §1

DU-4475 = system: DU-4475
Experimental: as §1

BT-549 = system: BT-549
Experimental: as §1

HDQ-P1 = system: HDQ-P1
Experimental: as §1

| Structure (SMILES) | normalised response (MDA-MB-468) | normalised response (HCC1599) | normalised response (HCC1143) | normalised response (CAL-85-1) | normalised response (MCF-10A) | normalised response (CAL-120) | normalised response (CAL-51) | normalised response (MDA-MB-453) | normalised response (MFM-223) | normalised response (CAL-148) | normalised response (MDA-MB-231) | normalised response (HCC1937) | normalised response (MDA-MB-436) | normalised response (BT-474) | normalised response (Hs578T) | normalised response (DU-4475) | normalised response (BT-549) | normalised response (HDQ-P1) |
| --- | --- | --- | --- | --- | --- | --- | --- | --- | --- | --- | --- | --- | --- | --- | --- | --- | --- | --- |
| COc1ccc(-c2cc3c(C)nc(N)nc3n([C@H]3CC[C@H](OCCO)CC3)c2=O)cn1 (10 nM) | 67.3% | 97.6% | 77.8% | 102% | -55.7% | 98.8% | 79.1% | 94.4% | 98% | 99.4% | 94% | 105% | 93.5% | 100% | 114% | 93.9% | 102% |  |
| O=C(Nc1c[nH]nc1-c1nc2ccc(CN3CCOCC3)cc2[nH]1)NC1CC1 [AT9283] (1 nM) | 69.1% | 118% | 112% | 101% | 81.9% | 107% | 78.3% | 108% | 102% | 60% | 88.7% | 113% | 103% | 101% | 114% | 112% | 112% | 119% |
| CN[C@@H](C)C(=O)N[C@H]1CN(C(=O)CC(C)C)CC[C@H]2CC[C@@H](C(=O)NC(c3ccccc3)c3ccccc3)N2C1=O [AT-406] (10 nM) | 127% | 96.8% | 111% | 92.4% | 108% | 88.3% | 112% | 87.8% | 100% | 110% | 97.3% | 110% | 98% | 103% | 126% | 96.5% | 94.7% | 110% |
| Nc1cc(C(F)(F)F)c(-c2cc(N3CCOCC3)nc(N3CCOCC3)n2)cn1 [Buparlisib] (10 nM) | 131% | 86.5% | 108% | 97.2% | 101% | 101% | 101% | 93.9% | 100% | 95.5% | 76.3% | 96.5% | 99.2% | 99.6% | 100% | 95.1% | 105% | 103% |
| CC(C)(C)c1nc(-c2cccc(NS(=O)(=O)c3c(F)cccc3F)c2F)c(-c2ccnc(N)n2)s1 [Dabrafenib] (2.5 nM) | 108% | 105% | 113% | 95.2% | 103% | 94.9% | 103% | 97.6% | 97% | 102% | 119% | 118% | 87.9% | 105% | 125% | 101% | 105% | 107% |
| Cc1c2oc3c(C)ccc(C(=O)N[C@@H]4C(=O)N[C@H](C(C)C)C(=O)N5CCC[C@H]5C(=O)N(C)CC(=O)N(C)[C@@H](C(C)C)C(=O)O[C@@H]4C)c3nc-2c(C(=O)N[C@@H]2C(=O)N[C@H](C(C)C)C(=O)N3CCC[C@H]3C(=O)N(C)CC(=O)N(C)[C@@H](C(C)C)C(=O)O[C@@H]2C)c(N)c1=O [Dactinomycin] (1 nM) (I: T[dV]P[Sar][NMeV] / II: T[dV]P[Sar][NMeV]; ester I:1-I:C, II:1-II:C; linker I:N-II:N via Actinocin(9to1)) | 105% | 95.4% | 107% | 100% | 103% | 96% | 103% | 94.3% | 89.4% | 83.9% | 87.2% | -35.7% | 89.6% | 101% | 94.8% | 95.5% | 102% | 112% |
| CCc1cnn2c(NCc3ccc[n+]([O-])c3)cc(N3CCCC[C@H]3CCO)nc12 [Dinaciclib] (1 nM) | 119% | 98.1% | 65.8% | 95.5% | 86.8% | 97.3% | 102% | 98.8% | 97.3% | 71.3% | 111% | 108% | 98.7% | 104% | 125% | 96.4% | 102% | 115% |
| CO[C@H]1C[C@@H]2CC[C@@H](C)[C@@](O)(O2)C(=O)C(=O)N2CCCC[C@H]2C(=O)O[C@H]([C@H](C)C[C@@H]2CC[C@@H](OCCO)[C@H](OC)C2)CC(=O)[C@H](C)/C=C(\C)[C@@H](O)[C@@H](OC)C(=O)[C@H](C)C[C@H](C)/C=C/C=C/C=C/1C [Everolimus] (0.1 nM) | 87.5% | 93.3% | 93.6% | 95% | 103% | 101% |  | 91.1% | 85.1% | 98.8% | 96.5% | 86.5% | 89.2% | 102% | 60.4% | 93% | 110% | 111% |
| COc1cc2c(Oc3ccc(NC(=O)C4(C(=O)Nc5ccc(F)cc5)CC4)cc3F)ccnc2cc1OCCCN1CCOCC1 [Foretinib] (1 nM) | 103% | 104% | 101% | 94.4% | 98.1% | 99.6% | 94% | 99.6% | 75.6% | 101% | 112% | 110% | 89.9% | 99.8% | 85% | 99.7% | 98.7% | 98.8% |
| CC(C)n1nc(-c2ccc3oc(N)nc3c2)c2c(N)ncnc21 [INK128] (1 nM) | 92.5% | 90.3% | 103% | 101% | 77% | 100% | 104% | 74.8% | 98.8% | 91.9% | 95% | 104% | 87.5% | 102% | 107% | 97% | 94.7% | 112% |

From the supplement of paper PMC4862054
